# Data published in PubChem BioAssay AID493014 (National Center for Advancing Translational Sciences (NCATS), 2011).
# The campaign covered roughly 340,000 compounds. About 170 (0.05%) were called active. This list was built around the results that the source calls inconclusive (neither active nor inactive); the mix of calls is not that of the screen. Calls come from the whole dose curve; as a rule, active = well fitted inhibition curve with a large enough effect in the signal ratio, with a control signal flat (not every such curve was filed as active); inconclusive = small, poorly fitted or top-dose-only effect, or effect the other way, or a change in a side signal; inactive = flat fitted curve, though single readings scatter; the % refers to the signal ratio. A potency beside an inconclusive call is a rough fit, not a confirmed value.
# Assay: qHTS Assay to Find Inhibitors of Chronic Active B-Cell Receptor Signaling;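 for activity change, negative = inhibition: plate controls were basal doxycycline-induced cells for no effect and cells given 10 µM MG132 for full effect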
# Conditions: ABC-DLBCL IkBa-CBG/CBR reporter, luminescence ratio (green luciferase fused to IkBa over red control in TMD8 lymphoma cells), 4 h; activity change, negative = inhibition: at 46.1 µM (top of the series)
# How it was run: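 TMD8 ABC-DLBCL cells carrying doxycycline-inducible green luciferase fused to IkappaBalpha plus unfused red luciferase were exposed to compounds (up to 46 uM) for 4 hrs at 37C. Activity came from the overlap-corrected green/red luminescence ratio.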
# Potency is the fitted concentration of half-maximal effect.
Structure (SMILES),"activity change, negative = inhibition",Potency
O=C(COC(=O)c1cccc2c1C(=O)c1ccccc1C2=O)NC1CCCCC1,inactive,
O=C(CSc1nnc(-c2ccccc2)o1)N1CCCCC1,inconclusive: -19%,
CN(C)c1nc(OCCNC(=O)Nc2ccccc2)nc(N(C)C)n1,inconclusive: 0.279%,
COc1cc(-c2noc(C)c2C#Cc2nccn2C)cc(OC)c1OC,,"inconclusive: 11.2 µM [falling, partial curve, poor fit]"
CCOC(=O)C1=C(C)C(c2cccc(Oc3ccccc3)c2)NC(=S)N1 (stereo not given),inconclusive: -13.3%,
CCOc1ccc(S(=O)(=O)NCC(c2cccs2)S(=O)(=O)c2ccc(C)cc2)cc1 (stereo not given),inconclusive: 4.26%,
CN(C1=C(NC(=O)c2ccc(Cl)cc2)C(=O)c2ccccc2C1=O)c1ccccc1,,"inconclusive: 20.6 µM [rising, partial curve]"
O=C(NCc1ccco1)C1CC(c2ccc(F)cc2)=NO1 (stereo not given),,"inconclusive: 35.5 µM [falling, single point]"
S=c1[nH]nc(-c2ccccc2)n1C1C=CCCC1 (stereo not given),,"inconclusive: 28.2 µM [falling, single point]"
COc1ccc(Cc2nc3ccc(C(=O)NCC(C)(C)OC)cc3o2)cc1,inactive,
O=C(COc1cc(F)ccc1[N+](=O)[O-])N1N=C(c2cccs2)CC1c1ccco1 (stereo not given),inactive,
O=c1[nH]c2cc3ccccc3cc2nc1C(F)(F)F,inactive,
CC(C)c1nnc(NC(=O)C2c3ccccc3Oc3ccccc32)s1,inconclusive: -1.91%,
CCCCN1CN(Cc2ccccc2)CNC1=S,inactive,
CCC(=O)Nc1cccc(C(=O)/C=C/c2cc(Br)ccc2OC)c1,,"inconclusive: 5.8 µM [falling, single point]"
CCCCOC(=O)C(C#N)c1nc2ccccc2nc1N1CCN(Cc2ccc3c(c2)OCO3)CC1 (stereo not given),inactive,
COc1ccc2c(c1)S/C(=C\C(=O)c1ccncc1)N2C,inactive,
CC(C)NC(=O)CSc1ncccc1-c1nc2ccccc2[nH]1,,"inconclusive: 7.94 µM [falling, partial curve]"
Cc1c(C(=O)Nc2ccccc2F)cnn1-c1ccccc1,,"inconclusive: 22.4 µM [falling, partial curve]"
O=[N+]([O-])c1ccc(N2CCCCC2)c(-c2nn[nH]n2)c1,inactive,
CC(=O)Nc1cccc(NS(=O)(=O)c2cn(C)c(=O)n(C)c2=O)c1,inconclusive: 27%,
CCC(=O)Nc1nc(C)c(-c2csc(Nc3ccccn3)n2)s1,,"inconclusive: 15.8 µM [falling, partial curve]"
O=C(O)c1ccc(N/N=C/c2ccc(-c3ccc(Cl)cc3Cl)o2)cc1,inconclusive: 221%,
c1ccc(CNc2ncnc3nc[nH]c23)cc1,,"inconclusive: 16.4 µM [falling, partial curve]"
COc1ccccc1N(C)S(=O)(=O)c1ccc(C(=O)NC2CCCCCC2)cc1,,"inconclusive: 11.2 µM [falling, partial curve]"
COc1ccccc1NC(=O)Nc1ccc(Br)cn1,inconclusive: -10.3%,
Cc1ccccc1S(=O)(=O)N1[C@@H](c2ccc(F)cc2)C(C(=O)O)=CC[C@H]1c1ccc(Cl)cc1,inactive,

# Reprinted at random: 5 entries already listed, in no set order.
Structure (SMILES),"activity change, negative = inhibition",Potency
COc1ccc2c(c1)S/C(=C\C(=O)c1ccncc1)N2C,inactive,
COc1ccc(Cc2nc3ccc(C(=O)NCC(C)(C)OC)cc3o2)cc1,inactive,
O=[N+]([O-])c1ccc(N2CCCCC2)c(-c2nn[nH]n2)c1,inactive,
CCC(=O)Nc1cccc(C(=O)/C=C/c2cc(Br)ccc2OC)c1,,"inconclusive: 5.8 µM [falling, single point]"
S=c1[nH]nc(-c2ccccc2)n1C1C=CCCC1 (stereo not given),,"inconclusive: 28.2 µM [falling, single point]"

# Next results follow.

Structure (SMILES),"activity change, negative = inhibition",Potency
Cn1nnnc1SCCNCc1ccccc1F,,"inconclusive: 0.092 µM [falling, full curve, poor fit]"
O=C(NCc1ccc(F)cc1)C(=O)NCC(c1cccs1)S(=O)(=O)c1cccs1 (stereo not given),inactive,
CCn1c(SCc2nc3ccccc3c(=O)[nH]2)nnc1-c1cccnc1,,"inconclusive: 25.9 µM [rising, partial curve, poor fit]"
c1cnc2c(OCc3nc4ccccc4[nH]3)cccc2c1,,"inconclusive: 25.9 µM [rising, partial curve]"
Cc1ccc2c(c1)C(O)(C1COC(C)(C)CC1=O)C(=O)N2C (stereo not given),inconclusive: -17.8%,
O=C(N/N=C/c1ccc2nccnc2c1)c1ccc(Br)cc1,inconclusive: -0.342%,
N/C(=N/OC(=O)c1ccccc1Cl)c1ncc([N+](=O)[O-])s1,inconclusive: 14.2%,
O=C(Nc1ccc(F)cc1)N1CCc2ccccc2C1,,"inconclusive: 35.5 µM [falling, partial curve]"
Cc1cc(NC(=O)c2cc(C(C)C)on2)no1,,"inconclusive: 25.1 µM [falling, single point]"
CC(/C=N/NC(=O)c1cnccn1)=C\c1ccco1,,"inconclusive: 35.5 µM [falling, single point]"
Cn1cnnc1SCC(=O)NNC(=O)c1ccc(Cl)cc1,inactive,
CC(C)(C)c1ccc(OCCN2CCCC2)cc1,inactive,
CCc1ccnc(NC(=O)Nc2ccc(OCc3ccccc3)cc2)c1,inconclusive: -0.336%,
Nc1nc(-c2ccccc2)c(-c2ccccc2)o1,inconclusive: -3.6%,
Cc1noc(NS(=O)(=O)c2ccc(N/C=C\C(=O)c3cccs3)cc2)c1C,,"inconclusive: 35.5 µM [falling, single point]"
COc1ccc(-c2csc(N3CCOCC3)n2)cc1OC,inconclusive: -6.13%,
CCc1ccc(/C=c2\s/c(=C\C(=O)C(C)(C)C)[nH]c2=O)cc1,,"inconclusive: 0.164 µM [rising, full curve, poor fit]"
O=C1NCC2=C1C(c1ccccc1)Nc1ccccc1N2 (stereo not given),inconclusive: 5.7%,
CCOC(=O)C1=C(c2ccccc2)O/C(=C(/C#N)C(F)(F)F)S1,,"inconclusive: 8.2 µM [rising, partial curve, poor fit]"
COc1cc(NC(=O)c2nccnc2N)cc(C(=O)Nc2cccc(C(F)(F)F)c2)c1,inconclusive: 0.64%,
COc1ccc(CCNC(=O)c2cc3c(=O)n4cccc(C)c4nc3n(Cc3ccco3)c2=N)cc1OC,,"inconclusive: 31.6 µM [cytotoxic, partial curve]"
Cc1cc(OCCOc2cccc3cccnc23)cc(C)c1Cl,,"inconclusive: 14.6 µM [falling, partial curve]"
O=C(Cn1c(-c2cscn2)nc2ccccc21)Nc1ccccc1F,inconclusive: -1.19%,
Cc1cc(C)nc(N/N=C/C2=C(N3CCOCC3)C(=C/c3ccccc3)/CC2)n1,inactive,
CCC1=NN(C(=O)c2ccc(Br)cc2)C(O)(c2ccccc2)C1 (stereo not given),inconclusive: -7.76%,
CN(C)c1ccc(C(CNS(=O)(=O)c2ccc3ccccc3c2)c2c[nH]c3ccccc23)cc1 (stereo not given),inconclusive: -3.19%,
CN(C(=O)CSc1nnc(-c2cccc(F)c2)n1N)C1CCS(=O)(=O)C1 (stereo not given),,"inconclusive: 5.62 µM [rising, single point]"

Structure (SMILES),"activity change, negative = inhibition",Potency
N#CCSc1ncnc2ccccc12,,"inconclusive: 25.1 µM [falling, single point]"
CN1CCN(C2=Cc3ccc(Cl)cc3Sc3ccc(F)cc32)CC1,inconclusive: 22.1%,
O=C(N/N=C/c1cc([N+](=O)[O-])ccc1Cl)c1cc(-c2ccccc2)nc2ccccc12,inactive,
CC1CCCCC1NC(=O)COCc1cc(-c2cccs2)on1 (stereo not given),inactive,
Cc1ccc(C)c2sc(NC(=O)CN3C(=O)CCC3=O)nc12,inconclusive: 9.73%,
COC(=O)[C@]1(Cc2ccccc2)N[C@H](c2ccc(SC3CCCCC3)c(OC)c2)[C@@H]2C(=O)N(C)C(=O)[C@@H]21,inconclusive: -3.79%,
Cc1cc(C)c(-n2[nH]nnc2=S)c(C)c1,inactive,
NS(=O)(=O)c1ccc(CCNCc2ccccc2OCc2ccc(F)cc2)cc1,inconclusive: -3.55%,
CCN(CC)S(=O)(=O)c1ccc2oc(SCC3CN=C(c4ccc(OC)cc4)S3)nc2c1 (stereo not given),inconclusive: -6.54%,
NC(=O)/C=C\C(=O)Nc1cccc(C(F)(F)F)c1,inconclusive: -13.3%,
CCN(CC)C(=O)c1[nH]cnc1C(=O)N[C@@H](CC(C)C)C(=O)OCc1ccccc1,,"inconclusive: 10 µM [falling, partial curve, poor fit]"
O=[N+]([O-])c1ccc(NC(=S)NCc2ccc(F)cc2)cc1,inconclusive: -2.06%,
O=[N+]([O-])c1cccnc1SCc1c(F)cccc1Cl,,"inconclusive: 17.8 µM [falling, partial curve]"
COc1ccccc1-c1nnc(NC(=O)c2ccccc2F)o1,,"inconclusive: 29.1 µM [rising, partial curve]"
Cc1ccc(CC(=O)Nc2ccc(F)c([N+](=O)[O-])c2)cc1C,inconclusive: 11.3%,
COc1ccc(NC(=O)CN(C)CC(=O)c2[nH]c(C)c(C(C)=O)c2C)cc1,inactive,
CCOC(=O)C1(CCc2ccccc2)CCN(C(=O)c2cnc(C)cn2)CC1,inactive,
Cc1sc2nc(CN3CCOCC3)nc(Cl)c2c1C,inactive,
COc1cccc(NC(=O)[C@H](CC(C)C)NC(=O)[C@@H]2Cc3ccccc3CN2)c1,inconclusive: -11.7%,
O=C(NCc1ccccc1)c1cccc(NC(=O)c2ccco2)c1,,"inconclusive: 11.2 µM [falling, partial curve]"
Cc1cccc(-n2ncc3c(NNC(=O)c4ccco4)ncnc32)c1,inconclusive: 10.9%,
Cc1nn(-c2ccccc2)c(Cl)c1/C=N/NC(=O)c1ccco1,,"inconclusive: 17.8 µM [falling, single point]"
Cc1ccc(C(=O)C(C)Oc2ccc3ccc(=O)oc3c2)cc1 (stereo not given),,"inconclusive: 35.5 µM [falling, single point]"
COc1cc(/C=N/NC(=O)c2ccc3nc[nH]c3c2)cc(OC)c1OC,inconclusive: -0.0233%,
O=C(CSc1ccccc1)NCCCc1ccccc1,inconclusive: 6.17%,
N#Cc1ccsc1NC(=O)COC(=O)c1cc(Br)ccc1O,,"inconclusive: 35.5 µM [rising, single point]"
